Measured values: PubChem BioAssay AID2685 (National Center for Advancing Translational Sciences (NCATS), 2010)
The list shows a part of the results. Shown are side measurements of this screen, not its main read-out; they come without a call. The list favours compounds with an active or inconclusive main result. Potencies come from curve fits of mixed quality, noted in brackets.

Assay: qHTS Assay for Lipid Storage Modulators in Drosophila S3 Cells;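 as to cell number change: cells counted by Cell Tracker Red CMTPX staining in the red channel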
Conditions: BODIPY lipid droplet fluorescence, 18-24 h; for cell number change: measured here: cell count max response, cells fed with added oleic acid
How it was run: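 Laser-scanning cytometry quantifies lipid droplet accumulation (500–530 nm total intensity; droplet/cell object ratio) in oleic acid-fed (400 uM added) Drosophila S3 cells treated with a concentration series. 20 uM Triacsin C defined 100% inhibition.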

[1] = measured here: lipid fluorescence (Fed channel) AC50, cells fed with added oleic acid
[2] = measured here: cell number channel AC50, cells fed with added oleic acid

SMILES | AC50 [1] | cell number change | AC50 [2]
O=C(CSc1ncn(-c2ccccc2)n1)c1cccs1 | 0.82 µM [rising, single point] |  | 
O=C(Nc1nc(-c2ccc3c(c2)Cc2ccccc2-3)cs1)c1ccccc1 |  | -39.7% | 13 µM [falling, partial curve, poor fit]
Cc1cc(C)nc(Nc2nc3ccccc3[nH]2)n1 | 0.13 µM [rising, full curve, poor fit] | 54.4% | 0.164 µM [rising, full curve, poor fit]
COc1ccc(C(=O)NC(=S)Nc2cccc(NC(=O)c3ccco3)c2)cc1[N+](=O)[O-] |  | -11.2% | 
CC(C)Cn1c(C(C)C)nc([N+](=O)[O-])c1S(=O)(=O)c1ccc(F)cc1 | 6.51 µM [falling, partial curve] | -9.51% | 
CN(c1ccc([N+](=O)[O-])cc1/C=N/NC(=O)COc1ccccc1)C1CCCCC1 | 2.59 µM [rising, full curve] | 24.4% | 
COc1ccc(S(=O)(=O)N2CCCC2)cc1C(C)C |  | -15.6% | 
O=[N+]([O-])c1ccc(S(=O)(=O)CC2CSc3nc4ccccc4n32)cc1 (configuration not stated) | 20.6 µM [falling, partial curve] |  | 
COCCn1c(SCC(=O)Nc2nc(C)c(Cl)cc2Cl)nc2ccccc21 |  | -9.45% | 0.082 µM [rising, full curve, poor fit]
Cc1cc(NC(=O)COC(=O)c2c(C)nn(-c3ccccc3)c2C)no1 | 0.164 µM [rising, full curve, poor fit] | -21.6% | 
CC(C)(C)c1ccc(C(=O)NNC(=S)NC(=O)c2cccnc2)cc1 |  | -13.2% | 
Cn1ccnc1SCC(=O)Nc1cccc2ccccc12 | 0.461 µM [falling, partial curve, poor fit] | 42.4% | 5.8 µM [rising, single point]
CC(=O)c1ccc(S(=O)(=O)Nc2ccc(-n3cnnn3)cc2)cc1 | 29.1 µM [rising, single point] | -3.55% | 
CC(C)C(=O)N1CCN(C2=NS(=O)(=O)c3ccccc32)CC1 |  | -7.73% | 
O=C(NC1c2ccccc2-c2ccccc21)c1ccco1 |  | 18.7% | 
CCc1ccc(NC(=O)CSc2nc3ccccc3nc2N2CCCC2)cc1 | 29.1 µM [falling, single point] | 13.8% | 
CN(C)CCCNC(=O)c1ccccn1 |  | -134% | 
CCOC(=O)C(=O)Nc1nnc(SCc2ccc(F)cc2)s1 | 1.16 µM [falling, full curve] |  | 
O=C(c1cc(-c2cccc(O)c2)on1)N1CCCCCC1 | 29.1 µM [falling, single point] | 20% | 
Nc1c(S(=O)(=O)c2cc(Cl)ccc2Cl)c2nc3ccccc3nc2n1CCN1CCOCC1 | 0.82 µM [rising, full curve] | 23.9% | 
O=C(Nc1nc2ccccc2s1)c1ccc(Cl)s1 | 6.51 µM [falling, single point] | -41.8% | 2.59 µM [falling, partial curve, poor fit]

A draw from above in order of SMILES length, largest number first:
SMILES | AC50 [1] | cell number change | AC50 [2]
Nc1c(S(=O)(=O)c2cc(Cl)ccc2Cl)c2nc3ccccc3nc2n1CCN1CCOCC1 | 0.82 µM [rising, full curve] | 23.9% | 
O=[N+]([O-])c1ccc(S(=O)(=O)CC2CSc3nc4ccccc4n32)cc1 (configuration not stated) | 20.6 µM [falling, partial curve] |  | 
CC(C)C(=O)N1CCN(C2=NS(=O)(=O)c3ccccc32)CC1 |  | -7.73% | 
Cc1cc(C)nc(Nc2nc3ccccc3[nH]2)n1 | 0.13 µM [rising, full curve, poor fit] | 54.4% | 0.164 µM [rising, full curve, poor fit]
CN(C)CCCNC(=O)c1ccccn1 |  | -134% | 

Continuation.

SMILES | AC50 [1] | cell number change | AC50 [2]
Cc1ccc(S(=O)(=O)N/N=C\c2ccc(Cl)c([N+](=O)[O-])c2)cc1 | 0.651 µM [falling, single point] |  | 
COc1ccc2nc(NC(=O)C3COc4ccccc4O3)sc2c1 (configuration not stated) | 3.66 µM [rising, partial curve] |  | 
Cn1c(CNC(=O)OC(C)(C)C)nnc1SCC(=O)N1CCOCC1 | 0.0013 µM [falling, full curve, poor fit] | -11.5% | 
CCOC(=O)c1oc2ccc(S(=O)(=O)N3CCOCC3)cc2c1C |  | 30.3% | 7.31 µM [rising, partial curve, poor fit]
O=C(NCC1CCCCN1)c1cc(OCC(F)(F)F)ccc1OCC(F)(F)F (configuration not stated) | 0.116 µM [rising, full curve, poor fit] | 3.17% | 
CC(=O)c1cc(-c2ccccc2)n(CCC(=O)NC2CCCCC2)c1C | 0.0731 µM [falling, full curve, poor fit] | 11.6% | 
O=C(CSc1n[nH]c(-c2ccccc2)n1)Nc1ccc(N2CCOCC2)cc1 |  | -42.7% | 
CNc1ccccc1C(=O)OC(C)C(=O)Nc1ccc(S(=O)(=O)N2CCCC2)cc1 (configuration not stated) |  | -13.6% | 
O=c1c2c3c(sc2n(CCN2CCOCC2)c(=O)n1Cc1ccco1)CCCCC3 | 0.58 µM [falling, single point] | -0.578% | 
Cn1c(=O)n(C)c2cc(/C=N/NC(=O)c3cccc(Br)c3)ccc21 |  | 35.9% | 0.259 µM [rising, full curve]
COc1ccc(CCNC(=O)CSc2nnc(CNC(=O)c3ccco3)o2)cc1OC | 29.1 µM [rising, single point] | 10.2% | 
O=C(CN1CCN(CC(=O)Nc2ccccc2Cc2ccccc2)CC1)Nc1ccccc1Cl |  | 34.9% | 14.6 µM [rising, partial curve, poor fit]
CC1CCc2cc(F)cc3c(=O)c(C(=O)O)cn1c23 (configuration not stated) | 29.1 µM [falling, single point] | -42% | 
CCNS(=O)(=O)c1ccc(CCC(=O)N2CCN(c3ccc(OC)cc3)CC2)cc1 |  | 10.8% | 
Cc1cccc(C(=O)NCCCNC(=O)c2ccco2)c1 |  | -0.952% | 
Cc1ccc(C(=O)N2CCN(c3ncccn3)CC2)cc1NC1=NC2CS(=O)(=O)CC2S1 (configuration not stated) |  | 20.5% | 
Cc1cc(OCC(=O)Nc2cccnc2)c2c(C)c(C)c(=O)oc2c1 |  | -1.91% | 
Cc1onc(-c2c(F)cccc2Cl)c1C(=O)O/N=C(\N)c1ccc([N+](=O)[O-])o1 | 29.1 µM [falling, single point] | -33.5% | 14.6 µM [falling, single point]
CCN(CC)S(=O)(=O)c1ccc(Oc2cccc(C(C)=O)c2)nc1 |  | -2.24% | 
CCOC(=O)c1ccc(NC(=O)c2nc[nH]c2C(=O)N[C@@H](CCCCNC(=O)OC(C)(C)C)C(=O)OC(C)(C)C)cc1 | 32.6 µM [falling, single point] | -3.18% | 
COc1ccc(-n2c(=O)[nH]cc(C(=O)N3CCCc4ccccc43)c2=O)cc1 |  | -1.92% | 6.51 µM [falling, single point]

SMILES | AC50 [1] | cell number change | AC50 [2]
CCc1cccc2c(C(=O)CN3C(=O)NC4(CCc5ccccc54)C3=O)c[nH]c12 (configuration not stated) | 5.8 µM [falling, single point] | -50.3% | 11.6 µM [falling, partial curve]
CC/C(=C/c1ccccc1)c1cccc2[nH]c3c(OC)cccc3c12 | 29.1 µM [rising, single point] | 15.9% | 
COC(=O)CN1C(=O)[C@H]2[C@@H](c3ccc(C)o3)N3C(=O)CN(Cc4ccccn4)C(=O)[C@@]3(C)[C@H]2C1=O | 29.1 µM [falling, single point] | 3.29% | 
COc1ccc(NC(=O)C2CCC(CNc3c(N4CCOCC4)c(=O)c3=O)CC2)cc1Cl (configuration not stated) |  | -3.94% | 0.0259 µM [falling, full curve, poor fit]
c1ccc(CN2CCC3(CC2)Nc2ccccc2CO3)cc1 | 2.59 µM [falling, partial curve] | -87.7% | 29.1 µM [falling, single point]
Cc1ccc(S(=O)(=O)NNC(=O)Nc2cccc3ccccc23)cc1 | 6.51 µM [rising, single point] |  | 
CCCOc1ccc(NC(=O)CNC(=O)c2cc(OC)cc(OC)c2)cc1OCCC | 8.2 µM [rising, partial curve] | 3.28% | 
CC[n+]1c(C=C2C=C(C)OC(C)=C2)sc2ccccc21 | 3.66 µM [falling, full curve] | -68% | 1.84 µM [falling, partial curve]
C=CCN(c1ccccc1)S(=O)(=O)c1cc2c(cc1C)NC(=O)CO2 | 0.0651 µM [rising, full curve, poor fit] | 5.48% | 
N#Cc1ccc(CSc2nnc(COc3ccccc3)n2-c2ccccc2)cc1 | 0.146 µM [rising, full curve, poor fit] |  | 
O=C(CSc1nnc(NC(=O)c2ccccc2F)s1)NCc1ccc(F)cc1 | 29.1 µM [rising, single point] | -22.8% | 
COc1c(C)cc(S(=O)(=O)NCCN2CCOCC2)c(C)c1C | 29.1 µM [rising, single point] | 8.14% | 
CCCC(=O)NNC(=O)c1ccoc1C | 0.184 µM [falling, full curve, poor fit] | -16.1% | 
Cc1nn(Cc2ccccc2)c(Cl)c1C(=O)NCCc1ccc(Cl)cc1 | 1.03 µM [rising, full curve, poor fit] | 5.63% | 
O=C(Cn1nc(Cc2cccnc2)c2ccccc2c1=O)NCC1COc2ccccc2O1 (configuration not stated) | 6.51 µM [rising, partial curve] | -8.78% | 
CN(C)C(=S)Nc1nc2ccccc2s1 |  | -18.3% | 0.00651 µM [falling, full curve, poor fit]
O=C(/C=C\Nc1ccc(Br)cc1)c1cccnc1 |  | 13% | 
CCC(C)(C)NC(=O)C(c1ccc(C)o1)N(Cc1cccs1)C(=O)Cn1nnc2ccccc21 (configuration not stated) | 0.103 µM [rising, full curve, poor fit] | -26.9% | 
CCOC(=O)/C=C/C(=O)OCc1csc(CC(=O)Nc2ccccc2C)n1 | 5.17 µM [falling, single point] |  | 
C=CCNc1nc2c(c(=O)n(C)c(=O)n2C)n1CCCCCC | 29.1 µM [falling, single point] | -121% | 29.1 µM [falling, single point]
COc1cc(Cl)ccc1OCc1cc(C(=O)N2C[C@H]3CC[C@H]2C3)no1 | 0.0731 µM [rising, full curve, poor fit] | -1.74% | 
